The series in a line: general procedure: peptide synthesis; 2-chlorotrityl resin; HATU; PyAOP. As to conditions: late stage modification step.
“(3R,10S,14S,3′R,10'S,14'S)-1,1′-(propane-1,3-diylbis{[(2-{[1-(carboxymethyl)-3-hydroxy-6-methyl-2-oxo-1,2-dihydropyridine-4-carbonyl]amino}ethyl)azanediyl]ethane-2,1-diylcarbamoyl(3-hydroxy-6-methyl-2-oxopyridine-4,1(2H)-diyl)(1-oxoethane-2,1-diyl)azanediylmethylene(1r,4S)cyclohexane-4,1-diyl})bis(3-{[4-(methylamino)naphthalen-2-yl]methyl}-1,4,12-trioxo-2,5,11,13-tetraazahexadecane-10,14,16-tricarboxylic acid)”: the “crude purity (method not given)” value was 95% purity. Regarding “(3S,10S,14S)-1-[4-(aminomethyl)phenyl]-3-[(naphthalen-2-yl)methyl]-1,4,12-trioxo-2,5,11,13-tetraazahexadecane-10,14,16-tricarboxylic acid”, the “final purity (method not given)” value was found to be 90% purity and the step yield came out at 11% yield. For the substance “(3S,10S,14S)-1-[(1r,4S)-4-(43-amino-3,7-dioxo-5,11,14,17,20,23,26,29,32,35,38,41-dodecaoxa-2,8-diazatritetracontan-1-yl)cyclohexyl]-3-[(naphthalen-2-yl)methyl]-1,4,12-trioxo-2,5,11,13-tetraazahexadecane-10,14,16-tricarboxylic acid”, the step yield is on record as 100% yield. On to “(3S,10S,14S)-1-[(1r,4S)-4-(aminomethyl)cyclohexyl]-3-[(1-bromonaphthalen-2-yl)methyl]-1,4,12-trioxo-2,5,11,13-tetraazahexadecane-10,14,16-tricarboxylic acid”, for which the “final purity (method not given)” value is recorded as 85% purity and the step yield is 76% yield. The like results for “(3S,10S,14S)-1-[(1r,4S)-4-(aminomethyl)cyclohexyl]-3-[([1,1′-biphenyl]-4-yl)methyl]-1,4,12-trioxo-2,5,11,13-tetraazahexadecane-10,14,16-tricarboxylic acid” were, in that order, 98% purity and 58% yield. As to “(3S,10S,14S)-1-[(1r,4S)-4-(aminomethyl)cyclohexyl]-3-[(naphthalen-2-yl)methyl]-1,4,12-trioxo-2-[(6-oxo-1,6-dihydropyridin-2-yl)methyl]-2,5,11,13-tetraazahexadecane-10,14,16-tricarboxylic acid”, the “crude purity (method not given)” value amounted to 90% purity and the step yield stood at 33% yield. With “(3S,10S,14S)-1-[(1r,4S)-4-({2-[4-({2-[{3-[bis(2-{[1-(carboxymethyl)-3-(hydroxy-kappaO)-6-methyl-2-(oxo-kappaO)-1,2-dihydropyridine-4-carbonyl]amino}ethyl)amino]propyl}(2-{[1-(carboxymethyl)-3-(hydroxy-kappaO)-6-methyl-2-(oxo-kappaO)-1,2-dihydropyridine-4-carbonyl]amino}ethyl)amino]ethyl}carbamoyl)-3-(hydroxy-kappaO)-6-methyl-2-(oxo-kappaO)pyridin-1(2H)-yl]acetamido}methyl)cyclohexyl]-3-[(naphthalen-2-yl)methyl]-1,4,12-trioxo-2,5,11,13-tetraazahexadecane-10,14,16-tricarboxylato(4−)(^232Th)Thorium”, the “crude purity (method not given)” value was found to be 95% purity and the step yield is recorded as 92% yield.

As to “(3S,10S,14S)-3-[(naphthalen-2-yl)methyl]-1,4,12-trioxo-1-[4-({2-[4,7,10-tris(carboxymethyl)-1,4,7,10-tetraazacyclododecan-1-yl]acetamido}methyl)phenyl]-2,5,11,13-tetraazahexadecane-10,14,16-tricarboxylic acid”, the “final purity (method not given)” value was found to be 95% purity and the step yield was found to be 21% yield. As for “(4S,11S,15S)-1-(4-aminophenyl)-4-[(naphthalen-2-yl)methyl]-2,5,13-trioxo-3,6,12,14-tetraazaheptadecane-11,15,17-tricarboxylic acid”, the “final purity (method not given)” value came out at 95% purity and the step yield was found to be 41% yield.

Turning to “(4S,11S,15S)-4-[(naphthalen-2-yl)methyl]-2,5,13-trioxo-1-(4-{2-[4,7,10-tris(carboxymethyl)-1,4,7,10-tetraazacyclododecan-1-yl]acetamido}phenyl)-3,6,12,14-tetraazaheptadecane-11,15,17-tricarboxylic acid”, the “final purity (method not given)” value was 90% purity and the step yield stood at 11% yield. For the substance “N^6-{3-(3,4-dihydro-2H-1-benzopyran-6-yl)-N-[(1r,4S)-4-({2-[4,7,10-tris(carboxymethyl)-1,4,7,10-tetraazacyclododecan-1-yl]acetamido}methyl)cyclohexane-1-carbonyl]-D-alanyl}-N^2-{[(1S)-1,3-dicarboxypropyl]carbamoyl}-L-lysine”, the “final purity (method not given)” value is given as 95% purity and the step yield was 26% yield. Consider “N^6—{N-[(1r,4S)-4-(aminomethyl)cyclohexane-1-carbonyl]-2-methyl-L-phenylalanyl}-N^2-{[(1S)-1,3-dicarboxypropyl]carbamoyl}-L-lysine”, for which the “final purity (method not given)” value is recorded as 80% purity and the step yield came to 54% yield. For “N^6—{N-[(1r,4S)-4-(aminomethyl)cyclohexane-1-carbonyl]-3-(pentafluoro-lambda^6-sulfanyl)-L-phenylalanyl}-N^2-{[(1S)-1,3-dicarboxypropyl]carbamoyl}-L-lysine” the same measures were 99% purity and 48% yield. For “N^6—{N-[(1r,4S)-4-(aminomethyl)cyclohexane-1-carbonyl]-3-(quinolin-3-yl)-L-alanyl}-N^2-{[(1S)-1,3-dicarboxypropyl]carbamoyl}-L-lysine”, the “final purity (method not given)” value was 95% purity and the step yield was found to be 72% yield. On to “N^6—{N-[(1r,4S)-4-(aminomethyl)cyclohexane-1-carbonyl]-3-fluoro-L-phenylalanyl}-N^2-{[(1S)-1,3-dicarboxypropyl]carbamoyl}-L-lysine”, for which the “final purity (method not given)” value came out at 98% purity and the step yield is reported as 59% yield.

For the substance “N^6—{N-[(1r,4S)-4-(aminomethyl)cyclohexane-1-carbonyl]-4-methyl-L-phenylalanyl}-N^2-{[(1S)-1,3-dicarboxypropyl]carbamoyl}-L-lysine”, the “final purity (method not given)” value was determined as 90% purity and the step yield stood at 36% yield. As for “N^6—{N-[(1r,4S)-4-(aminomethyl)cyclohexane-1-carbonyl]-4-tert-butyl-L-phenylalanyl}-N^2-{[(1S)-1,3-dicarboxypropyl]carbamoyl}-L-lysine”, the “final purity (method not given)” value was determined as 90% purity and the step yield is 27% yield. In the case of “N^6—{N-[(1r,4S)-4-(aminomethyl)cyclohexane-1-carbonyl]-L-tyrosyl}-N^2-{[(1S)-1,3-dicarboxypropyl]carbamoyl}-L-lysine”, the “final purity (method not given)” value is 99% purity and the step yield is 73% yield. Turning to “N^6—{N-[(1r,4S)-4-({2-[4-({2-[{3-[bis(2-{[1-(carboxymethyl)-3-hydroxy-6-methyl-2-oxo-1,2-dihydropyridine-4-carbonyl]amino}ethyl)amino]propyl}(2-{[1-(carboxymethyl)-3-hydroxy-6-methyl-2-oxo-1,2-dihydropyridine-4-carbonyl]amino}ethyl)amino]ethyl}carbamoyl)-3-hydroxy-6-methyl-2-oxopyridin-1(2H)-yl]acetamido}methyl)cyclohexane-1-carbonyl]-3-(quinolin-3-yl)-L-alanyl}-N^2-{[(1S)-1,3-dicarboxypropyl]carbamoyl}-L-lysine”, the “crude purity (method not given)” value is on record as 95% purity and the step yield amounted to 104% yield. Turning to “N^6—{N^2-[(1r,4S)-4-(aminomethyl)cyclohexane-1-carbonyl]-N^6-(pyridine-3-carbonyl)-L-lysyl}-N^2-{[(1S)-1,3-dicarboxypropyl]carbamoyl}-L-lysine”, the “final purity (method not given)” value is listed as 95% purity and the step yield worked out at 76% yield. Consider “N^6—{N^6-acetyl-N^2-[(1r,4S)-4-(aminomethyl)cyclohexane-1-carbonyl]-L-lysyl}-N^2-{[(1S)-1,3-dicarboxypropyl]carbamoyl}-L-lysine”, for which the “final purity (method not given)” value came out at 89% purity.

On to “formic acid-tri-tert-butyl (3S,10S,14S)-1-[(1r,4S)-4-(aminomethyl)cyclohexyl]-3-[([1,1′-biphenyl]-4-yl)methyl]-1,4,12-trioxo-2,5,11,13-tetraazahexadecane-10,14,16-tricarboxylate (1/1)”, for which the “final purity (method not given)” value came to 98% purity and the step yield is 54% yield. “formic acid-tri-tert-butyl (7S,14S,18S)-7-{[(1r,4S)-4-(aminomethyl)cyclohexane-1-carbonyl]amino}-1,8,16-trioxo-1-(pyridin-3-yl)-2,9,15,17-tetraazaicosane-14,18,20-tricarboxylate (1/1)”: the “final purity (method not given)” value amounted to 98% purity and the step yield is 44% yield. Regarding “tri-tert-butyl (3S,10S,14S)-1-[4-(aminomethyl)phenyl]-3-[(naphthalen-2-yl)methyl]-1,4,12-trioxo-2,5,11,13-tetraazahexadecane-10,14,16-tricarboxylate”, the “final purity (method not given)” value stood at 70% purity and the step yield turned out to be 23% yield. For “tri-tert-butyl (3S,10S,14S)-1-[(1r,4S)-4-(aminomethyl)cyclohexyl]-1,4,12-trioxo-3-{[3-(pentafluoro-lambda^6-sulfanyl)phenyl]methyl}-2,5,11,13-tetraazahexadecane-10,14,16-tricarboxylate” the same measures were 95% purity and 51% yield. In turn, “tri-tert-butyl (3S,10S,14S)-1-[(1r,4S)-4-(aminomethyl)cyclohexyl]-3-[(1-bromonaphthalen-2-yl)methyl]-1,4,12-trioxo-2,5,11,13-tetraazahexadecane-10,14,16-tricarboxylate” showed a step yield of 37% yield.

Values taken from patent US20230072421A1 (Bayer AS, priority 2019, published 2023).
